{"sequences": {"note": "Amino acid sequences for entries named in this document (tags omitted).", "UniProt P18054, whole entry, looked up": "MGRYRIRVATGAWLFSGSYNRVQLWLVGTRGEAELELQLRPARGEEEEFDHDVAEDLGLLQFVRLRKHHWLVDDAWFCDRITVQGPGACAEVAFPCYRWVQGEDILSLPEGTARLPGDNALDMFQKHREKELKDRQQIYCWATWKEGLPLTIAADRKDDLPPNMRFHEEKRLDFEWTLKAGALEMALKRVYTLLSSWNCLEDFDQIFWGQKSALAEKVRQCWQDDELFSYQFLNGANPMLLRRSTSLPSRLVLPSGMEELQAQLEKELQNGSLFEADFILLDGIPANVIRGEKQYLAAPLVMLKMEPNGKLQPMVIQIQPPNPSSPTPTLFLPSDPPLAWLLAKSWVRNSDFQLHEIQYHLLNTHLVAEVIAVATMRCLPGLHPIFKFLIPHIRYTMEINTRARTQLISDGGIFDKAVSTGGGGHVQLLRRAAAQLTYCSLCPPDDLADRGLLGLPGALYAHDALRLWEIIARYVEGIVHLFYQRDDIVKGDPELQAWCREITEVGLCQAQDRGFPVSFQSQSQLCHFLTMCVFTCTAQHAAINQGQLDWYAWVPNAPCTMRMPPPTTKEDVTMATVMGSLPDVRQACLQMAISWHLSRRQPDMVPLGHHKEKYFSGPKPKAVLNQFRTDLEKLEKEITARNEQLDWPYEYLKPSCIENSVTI"}, "source": "PubChem BioAssay AID1671190", "about": "(National Center for Advancing Translational Sciences (NCATS), 2021)", "note": "Screen size: about 580,000 compounds; about 6,100 (1.1%) were called active. The shares of active, inactive and inconclusive entries below differ from those in the screen. Calls come from the whole dose curve; as a rule, active = well fitted inhibition curve with a large enough effect; inconclusive = small, poorly fitted or top-dose-only effect, or another doubt; inactive = no such curve, though single readings can be large or run the other way. Potencies beside an inconclusive call are fits to weak or partial responses and may not hold up. % is set by controls: 0 for no effect and ±100 for the full control effect; potency is the fitted concentration of half-maximal effect."}
{"target": "Polyunsaturated fatty acid lipoxygenase ALOX12 (Homo sapiens) (UniProt P18054)", "assay": "Primary qHTS assay for inhibitors of human arachidonate 12S-lipoxygenase (ALOX12): Round 2", "conditions": "purified 12hLO, xylenol orange hydroperoxide absorbance; activity change, negative = inhibition: at 108 µM (top of the series) unless noted", "summary_of_the_method": "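Purified human 12hLO at 150 nM in 25 mM Hepes, 0.01% Triton X-100, pH 7.0, preincubated 15 min at room temperature with compound. Reaction started with 40 uM arachidonic acid, 30 min at room temperature. Hydroperoxide measured by Fe-xylenol orange, 573/405 nm absorbance ratio.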"}
{"smiles": "Nc1ccccc1NC1=CC(=O)CC(c2ccco2)C1", "note": "(centres undefined)", "activity change, negative = inhibition": "inactive: 492%"}
{"smiles": "Cc1cccc(NC(=O)c2nc[nH]c2C(=O)NCCCCCCNC(=O)c2[nH]cnc2C(=O)Nc2cccc(C)c2)c1", "activity change, negative = inhibition": "inactive: 14.3%"}
{"smiles": "COc1ccc(C2=NC(c3ccncc3)=Nc3ccc(Br)cc3N2)cc1", "Potency": "inconclusive: 50.1 µM [inhibitor, partial curve, poor fit]"}
{"smiles": "Cc1nnc(-c2cc(N3C[C@@H](C)O[C@@H](C)C3)ccn2)n1C1CCCCC1", "Potency": "inconclusive: 20 µM [inhibitor, full curve, poor fit]"}
{"smiles": "CC[C@]12c3[nH]c4ccc(Cl)cc4c3CCN1C(=O)[C@@H](CC(=O)NCCC1=CCCCC1)C[C@@H]2C(=O)N1CCN(C(=O)C2CC2)CC1", "Potency": "inconclusive: 89.1 µM [inhibitor, partial curve, poor fit]"}
{"smiles": "CCN(Cc1ccccc1)C(=O)c1cc(-c2ccncc2)cn1Cc1ccc(C)cc1", "Potency": "inconclusive: 70.8 µM [inhibitor, single point]"}
{"smiles": "O=C(c1cc2ccccc2cc1O)N1CCN(c2ccccc2O)CC1", "Potency": "inconclusive: 79.4 µM [inhibitor, partial curve, poor fit]"}
{"smiles": "Fc1cccc(Cc2c(-c3ccccc3)nc3c4ccccc4ccn23)c1", "activity change, negative = inhibition": "inactive: -7.08%"}
{"smiles": "c1ccc(-c2cncn2-c2ccccc2)cc1", "activity change, negative = inhibition": "inactive: 22.3%"}
{"smiles": "CCOC(=O)c1ccc(NS(=O)C23CC4CC(CC(C4)C2)C3)cc1", "note": "(centres undefined)", "Potency": "active: 7.08 µM"}
{"smiles": "CCOC(=O)c1nn(-c2ccc(C)cc2)c(=O)c2c(N)scc12", "Potency": "active: 25.1 µM"}
{"smiles": "Cc1oc(-c2ccc(C(=O)NCCCN3CCOCC3)cc2)nc1CSc1ccccc1", "activity change, negative = inhibition": "inactive: 2.26%"}
{"smiles": "Cc1cn2nc(C(=O)NCc3ccc(Cl)cc3)cc2c(N(C)Cc2ccccc2)n1", "Potency": "inconclusive: 28.2 µM [inhibitor, partial curve, poor fit]"}
{"smiles": "C[C@@H](C(=O)Nc1ccc(OC(F)F)c(Cl)c1)N1C(=O)C2CC=CCC2C1=O", "note": "(some centres undefined)", "Potency": "inconclusive: 158 µM [inhibitor, single point]"}
{"smiles": "CN(Cc1ccc(N(C)C)cc1)C(=O)c1cc2ccccc2o1", "Potency": "inconclusive: 112 µM [inhibitor, partial curve, poor fit]"}
{"smiles": "CC[C@@]1(C(=O)OC)N[C@H](CN(C)C(=O)c2ccccc2)[C@@H]2C(=O)N(Cc3ccccc3)C(=O)[C@@H]21", "Potency": "inconclusive: 39.8 µM [inhibitor, partial curve]"}
{"smiles": "Cc1cc(Br)ccc1SCC(=O)OCC(=O)Nc1ccccc1OC(F)F", "Potency": "inconclusive: 0.891 µM [inhibitor, full curve, poor fit]"}
{"smiles": "CCCCNC1=CC(=O)C(=O)c2ccccc21", "Potency": "inconclusive: 44.7 µM [inhibitor, partial curve, poor fit]"}
{"smiles": "CC(C)CCNC(=O)Cn1c(=O)n(CCC(C)C)c(=O)c2sccc21", "Potency": "inconclusive: 35.5 µM [inhibitor, single point]"}
{"smiles": "CC(NC(=O)CN1CCN(S(=O)(=O)c2ccc(C(C)(C)C)cc2)CC1)c1cccs1", "note": "(centres undefined)", "Potency": "inconclusive: 3.55 µM [inhibitor, full curve, poor fit]"}
{"smiles": "Cn1nccc1C(=O)NCCC1CCN(C(=O)Nc2ccc(F)cc2)CC1", "activity change, negative = inhibition": "inactive: 38.1%"}
{"smiles": "O=c1c(-c2ccc(Cl)cc2)c(C(F)(F)F)oc2c(CN3CCCCC3)c(O)ccc12", "activity change, negative = inhibition": "inactive: -19.2%"}
{"smiles": "Cc1cc(C)cc(N(C)C(=O)C2CCN(c3oc(-c4ccco4)nc3C#N)CC2)c1", "activity change, negative = inhibition": "inactive: 2.94%"}
{"smiles": "O=C(CSc1nnc(-c2ccc(Cl)cc2)n1CC1CCCO1)Nc1ccc2c(c1)OCO2", "note": "(centres undefined)", "Potency": "inconclusive: 35.5 µM [inhibitor, partial curve, poor fit]"}
{"smiles": "COc1ccc(OCCN2CCN(C3CCS(=O)(=O)C3)CC2)cc1", "note": "(centres undefined)", "Potency": "inconclusive: 44.7 µM [inhibitor, partial curve, poor fit]"}
{"smiles": "CCCCN1C(=O)C(CC(=O)NCCN2CCOCC2)CC(C(=O)N(C(C)C)C(C)C)=C1C", "note": "(centres undefined)", "Potency": "inconclusive: 44.7 µM [inhibitor, single point]"}
{"smiles": "Cc1cc([C@](C)(N)C(=O)O)ccc1P(=O)(O)O", "Potency": "inconclusive: 5.01 µM [inhibitor, full curve, poor fit]"}
{"smiles": "CCCCn1c(N)c(N(CCOC)C(=O)C2CCN(C(=O)c3ccc(Cl)cc3)CC2)c(=O)[nH]c1=O", "activity change, negative = inhibition": "inactive: -16.5%"}
{"smiles": "O=C(O)CSc1ncccc1C(=O)O", "activity change, negative = inhibition": "inactive: -6.62%"}
{"smiles": "O=C(Nc1cccc(OC2CCCC2)c1)C1CCCO1", "note": "(centres undefined)", "activity change, negative = inhibition": "inactive: 15.8%"}
{"smiles": "CCc1ccc(N2C(=O)CSC23C(=O)N(Cc2ccc(C)cc2)c2ccccc23)cc1", "note": "(centres undefined)", "Potency": "inconclusive: 100 µM [inhibitor, partial curve, poor fit]"}
{"smiles": "Cc1ccc(CN(CC(=O)NC(N)=O)C2CC2)cc1", "activity change, negative = inhibition": "inactive: -1.08%"}
{"smiles": "O=C(NCC1CCCO1)c1ccc(CSc2nc3cccnc3n2Cc2ccc(F)cc2)cc1", "note": "(centres undefined)", "activity change, negative = inhibition": "inactive: -9.03%"}
{"smiles": "O=C(C=C1CCN(c2ncc(C(F)(F)F)cc2Cl)CC1)NNC(=O)Nc1ccc(Cl)cc1", "activity change, negative = inhibition": "inactive: 0%"}
{"smiles": "C[C@@H]1ON(C)[C@H]2C[C@H]3c4[nH]c5ccc(-c6ccc7c(c6)OCO7)cc5c4CCN3C(=O)[C@@H]12", "Potency": "inconclusive: 11.2 µM [inhibitor, partial curve, poor fit]"}
{"smiles": "Cn1cc(C(C(=O)O)N2CCN(c3ncccn3)CC2)c2ccc(C(=O)O)cc21", "note": "(centres undefined)", "activity change, negative = inhibition": "inactive: -28.6%"}
{"smiles": "C[C@@H](CN1C2=NC[C@H](C)N2C[C@H]1Cc1ccc(O)cc1)NC(=O)CCC1CCCCC1", "activity change, negative = inhibition": "inactive: -4.7%"}
{"smiles": "O=C(CSc1nc2c(c(=O)[nH]1)CCC2)Nc1ccccc1C(F)(F)F", "Potency": "inconclusive: 56.2 µM [inhibitor, partial curve, poor fit]"}
{"smiles": "Cc1oc(-c2cccc(Cl)c2)nc1CN1CCC(C(=O)NCCCN2CCN(c3ccc(F)cc3)CC2)CC1", "Potency": "inconclusive: 50.1 µM [inhibitor, partial curve, poor fit]"}
{"smiles": "CC(C)Cn1c(=O)n(CC(C)N2CCCC2)c2cc(C(=O)O)cnc21", "note": "(centres undefined)", "activity change, negative = inhibition": "inactive: 29%"}
{"smiles": "Nc1ccc(N2CCCCC2)c2nonc12", "Potency": "inconclusive: 39.8 µM [inhibitor, partial curve, poor fit]"}
{"smiles": "C(#C[Si](C#CCN1CCCCC1)(c1ccccc1)C1CCCCC1)CN1CCCCC1", "Potency": "inconclusive: 7.94 µM [inhibitor, full curve, poor fit]"}
{"smiles": "COCCCNCCOCCOc1ccc(Cl)cc1C(C)(C)C", "Potency": "inconclusive: 17.8 µM [inhibitor, full curve, poor fit]"}
{"smiles": "Cc1ccc2nc(NC(=O)CSCC(=O)Nc3cc(C)on3)sc2c1", "Potency": "inconclusive: 89.1 µM [inhibitor, single point]"}
{"smiles": "CCn1c(SCc2nc3sc(C(=O)O)c(C)c3c(=O)[nH]2)nnc1-c1ccc(Cl)cc1", "activity change, negative = inhibition": "inactive: -15%"}
{"smiles": "CCOC(=O)c1c(N)sc(-c2ccccc2)c1C", "Potency": "inconclusive: 31.6 µM [inhibitor, partial curve]"}
{"smiles": "O=[N+]([O-])c1ccc(/C=N/NC(=S)Nc2ccc(Cl)cc2Cl)s1", "Potency": "inconclusive: 44.7 µM [inhibitor, partial curve, poor fit]"}
{"smiles": "CC[C@@H](C)[C@@H](C(=O)N1CCN(C(=O)OC(C)(C)C)CC1)n1cc(CCCN=C(NC(=O)OC(C)(C)C)NC(=O)OC(C)(C)C)nn1", "Potency": "inconclusive: 0.398 µM [inhibitor, full curve, poor fit]"}
{"smiles": "Brc1ccc(CN2CCN(Cc3c[nH]c4ccccc34)CC2)cc1", "Potency": "inconclusive: 39.8 µM [inhibitor, partial curve]"}
{"smiles": "O=C(c1cc(Cl)cc(Cl)c1)N1CCC2CC1c1cc(N3CCCCC3)ccc12", "note": "(centres undefined)", "Potency": "inconclusive: 3.55 µM [inhibitor, full curve]"}
{"smiles": "CCn1c(-n2nc(C)c(C)c2C)nc2c1c(=O)n(Cc1ccccc1)c(=O)n2C", "Potency": "inconclusive: 4.47 µM [inhibitor, full curve]"}
{"smiles": "COc1cc(C(c2c(C)[nH][nH]c2=O)c2c(C)[nH][nH]c2=O)ccc1OC(=O)c1cccc(C)c1", "Potency": "inconclusive: 100 µM [inhibitor, partial curve, poor fit]"}
{"smiles": "O=C1CCCCCN1C1CCN(Cc2ccncc2)CC1", "activity change, negative = inhibition": "inactive: 18.4% [at 176 µM]"}
{"smiles": "COc1ccc(C(=O)NCc2ccccc2CN2CCCC2)cc1S(=O)(=O)N1CCOCC1", "Potency": "inconclusive: 50.1 µM [inhibitor, partial curve, poor fit]"}
{"smiles": "CCCCOc1ccc(CN2C(=O)C(=O)c3cc(Br)cc(C)c32)cc1OC", "Potency": "inconclusive: 35.5 µM [inhibitor, partial curve, poor fit]"}
{"smiles": "CCCCc1ccc(NC(=S)NCCO)cc1", "Potency": "inconclusive: 63.1 µM [inhibitor, partial curve, poor fit]"}
{"smiles": "Cc1ccc(/C=C/C(=O)OCC(=O)NC(=O)NCc2ccco2)cc1", "Potency": "inconclusive: 126 µM [inhibitor, single point]"}
{"smiles": "NC(=O)c1ccc(-c2nc(CSc3ccc4c(c3)OCCCO4)cs2)cc1", "activity change, negative = inhibition": "inconclusive: -64.5% [inhibitor]"}
{"smiles": "Cc1cc(O)c(C(=O)/C=C/c2ccc(C(C)C)cc2)c(=O)o1", "Potency": "inconclusive: 70.8 µM [inhibitor, partial curve, poor fit]"}
{"smiles": "OC(COc1c(F)cc(Br)cc1F)CN1CCN(c2ccc(F)cc2)CC1", "note": "(centres undefined)", "Potency": "inconclusive: 56.2 µM [inhibitor, partial curve, poor fit]"}
{"smiles": "CNC(C)c1ccccn1", "note": "(centres undefined)", "Potency": "inconclusive: 2.92 µM [inhibitor, partial curve]"}
{"smiles": "CN(CCCNC(=O)CSc1cc(=O)n(C)c2cc(Cl)ccc12)Cc1ccccc1", "Potency": "inconclusive: 50.1 µM [inhibitor, partial curve, poor fit]"}
{"smiles": "COc1cccc(/C=N/Nc2nc3ccccc3n3cnnc23)c1", "activity change, negative = inhibition": "inactive: 14.2%"}
{"smiles": "Cc1cc(NC(=O)c2cc3n(n2)C(C(F)(F)F)CC(c2ccc(Cl)c(Cl)c2)N3)no1", "note": "(centres undefined)", "activity change, negative = inhibition": "inconclusive: -33.5% [inhibitor]"}
